In publication PMC11171731:
Results are given in words; binding and its absence hold for the method and conditions named. Binding seen in cells or lysates may run through a third protein. Some entries that bind do so weakly or less than the wild type. For some of these results: Tags and fused reporters may be left off the sequences shown. One block for each molecule: values may come before it.

Protein sequences, listed by entry. Tags and fused reporters are not part of them. Residues count along the entry.
UniProt Q9NQB0: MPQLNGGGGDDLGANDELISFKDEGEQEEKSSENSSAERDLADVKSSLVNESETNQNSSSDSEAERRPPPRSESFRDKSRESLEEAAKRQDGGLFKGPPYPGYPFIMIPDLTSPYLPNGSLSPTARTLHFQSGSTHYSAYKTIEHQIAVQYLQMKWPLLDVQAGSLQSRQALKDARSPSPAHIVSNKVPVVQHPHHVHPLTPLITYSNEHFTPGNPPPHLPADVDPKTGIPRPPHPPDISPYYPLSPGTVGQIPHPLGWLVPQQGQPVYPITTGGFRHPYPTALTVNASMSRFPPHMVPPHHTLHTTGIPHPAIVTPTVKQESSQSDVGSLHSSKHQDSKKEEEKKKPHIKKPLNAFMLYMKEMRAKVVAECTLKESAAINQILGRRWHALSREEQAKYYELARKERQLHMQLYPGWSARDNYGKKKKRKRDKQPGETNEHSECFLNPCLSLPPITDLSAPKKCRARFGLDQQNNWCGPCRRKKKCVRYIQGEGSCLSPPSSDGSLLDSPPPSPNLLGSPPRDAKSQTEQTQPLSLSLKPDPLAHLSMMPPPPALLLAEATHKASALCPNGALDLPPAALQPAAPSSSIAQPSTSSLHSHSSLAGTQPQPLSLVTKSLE
UniProt P49841: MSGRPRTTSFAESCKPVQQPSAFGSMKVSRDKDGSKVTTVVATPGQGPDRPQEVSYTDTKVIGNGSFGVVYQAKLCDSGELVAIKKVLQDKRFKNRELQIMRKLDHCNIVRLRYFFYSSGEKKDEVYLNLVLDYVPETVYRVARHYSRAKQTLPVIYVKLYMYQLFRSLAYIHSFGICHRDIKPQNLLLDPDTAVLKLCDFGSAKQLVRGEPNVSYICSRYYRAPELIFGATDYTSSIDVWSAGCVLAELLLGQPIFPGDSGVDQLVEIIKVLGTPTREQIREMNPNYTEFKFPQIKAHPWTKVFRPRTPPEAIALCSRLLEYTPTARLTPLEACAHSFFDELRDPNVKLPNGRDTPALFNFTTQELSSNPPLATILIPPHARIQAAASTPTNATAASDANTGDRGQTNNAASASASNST
UniProt Q9UJU2: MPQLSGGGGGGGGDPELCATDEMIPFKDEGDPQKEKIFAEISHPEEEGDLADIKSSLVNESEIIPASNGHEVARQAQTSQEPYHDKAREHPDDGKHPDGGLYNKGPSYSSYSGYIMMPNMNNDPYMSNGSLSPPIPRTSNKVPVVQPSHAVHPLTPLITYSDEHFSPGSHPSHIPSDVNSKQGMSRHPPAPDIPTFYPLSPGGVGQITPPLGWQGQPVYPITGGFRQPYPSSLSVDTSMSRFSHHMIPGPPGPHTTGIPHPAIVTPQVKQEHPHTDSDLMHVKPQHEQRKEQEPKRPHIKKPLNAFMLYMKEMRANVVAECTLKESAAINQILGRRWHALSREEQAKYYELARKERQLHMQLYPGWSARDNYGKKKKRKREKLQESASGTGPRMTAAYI
UniProt Q9ULV1, residues 37-537: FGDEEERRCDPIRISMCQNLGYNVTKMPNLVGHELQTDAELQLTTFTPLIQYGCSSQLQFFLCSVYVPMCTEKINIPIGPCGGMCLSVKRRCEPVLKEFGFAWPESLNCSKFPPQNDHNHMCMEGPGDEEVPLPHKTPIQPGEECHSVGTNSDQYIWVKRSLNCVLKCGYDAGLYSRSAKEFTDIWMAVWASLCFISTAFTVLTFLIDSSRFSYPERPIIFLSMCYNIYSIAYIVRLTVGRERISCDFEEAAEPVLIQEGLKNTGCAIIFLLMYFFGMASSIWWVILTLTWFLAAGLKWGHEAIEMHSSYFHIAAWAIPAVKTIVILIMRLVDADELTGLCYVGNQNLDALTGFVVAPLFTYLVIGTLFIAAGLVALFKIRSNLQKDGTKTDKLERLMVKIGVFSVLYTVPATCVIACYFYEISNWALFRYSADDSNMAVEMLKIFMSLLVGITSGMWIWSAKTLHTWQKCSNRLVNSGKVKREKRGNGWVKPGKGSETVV
UniProt Q13467, residues 27-585: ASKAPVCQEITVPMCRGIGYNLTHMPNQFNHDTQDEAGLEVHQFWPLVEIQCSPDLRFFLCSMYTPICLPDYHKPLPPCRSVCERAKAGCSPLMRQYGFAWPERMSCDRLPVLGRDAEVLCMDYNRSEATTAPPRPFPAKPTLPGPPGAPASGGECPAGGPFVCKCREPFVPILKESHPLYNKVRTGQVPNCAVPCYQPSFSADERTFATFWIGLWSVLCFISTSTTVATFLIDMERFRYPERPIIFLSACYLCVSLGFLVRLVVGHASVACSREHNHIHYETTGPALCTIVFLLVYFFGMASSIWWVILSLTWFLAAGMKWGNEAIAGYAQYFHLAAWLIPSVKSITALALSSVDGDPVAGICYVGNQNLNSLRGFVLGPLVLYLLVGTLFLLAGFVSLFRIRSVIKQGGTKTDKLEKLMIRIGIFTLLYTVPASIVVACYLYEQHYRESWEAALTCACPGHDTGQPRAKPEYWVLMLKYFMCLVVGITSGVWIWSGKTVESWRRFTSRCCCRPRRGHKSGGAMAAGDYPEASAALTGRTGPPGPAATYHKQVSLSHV
UniProt Q9H461, residues 28-694: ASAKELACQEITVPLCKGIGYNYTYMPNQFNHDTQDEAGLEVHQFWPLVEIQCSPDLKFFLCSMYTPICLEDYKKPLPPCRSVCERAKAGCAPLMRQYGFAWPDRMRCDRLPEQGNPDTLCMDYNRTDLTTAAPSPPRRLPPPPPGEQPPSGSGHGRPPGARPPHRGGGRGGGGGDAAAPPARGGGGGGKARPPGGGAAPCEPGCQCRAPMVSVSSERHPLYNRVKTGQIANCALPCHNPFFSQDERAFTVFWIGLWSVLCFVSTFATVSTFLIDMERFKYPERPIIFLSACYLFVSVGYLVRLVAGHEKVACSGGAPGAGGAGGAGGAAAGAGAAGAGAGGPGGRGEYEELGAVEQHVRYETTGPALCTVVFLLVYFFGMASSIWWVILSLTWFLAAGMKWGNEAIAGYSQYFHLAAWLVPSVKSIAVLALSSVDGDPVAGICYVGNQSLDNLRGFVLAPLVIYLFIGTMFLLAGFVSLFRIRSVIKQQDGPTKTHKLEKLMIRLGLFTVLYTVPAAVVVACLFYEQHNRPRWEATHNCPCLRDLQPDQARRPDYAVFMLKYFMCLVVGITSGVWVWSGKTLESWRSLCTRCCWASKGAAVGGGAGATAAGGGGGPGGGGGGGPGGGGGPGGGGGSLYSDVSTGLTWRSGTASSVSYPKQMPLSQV

How the values were obtained:
[1] = target: T1, C-terminally myc-tagged human PLC-β3 (human) (UniProt Q01970); assay: co-IP; anti-c-Myc antibody on Dynabeads, lysates (1% NP-40 buffer) of co-transfected HEK293T cells 48 h after transfection, 10 min at RT, Western blot for the co-expressed protein; with or without co-expressed Gαq (WT or Q209L) in Figure S8A
T1 sequence: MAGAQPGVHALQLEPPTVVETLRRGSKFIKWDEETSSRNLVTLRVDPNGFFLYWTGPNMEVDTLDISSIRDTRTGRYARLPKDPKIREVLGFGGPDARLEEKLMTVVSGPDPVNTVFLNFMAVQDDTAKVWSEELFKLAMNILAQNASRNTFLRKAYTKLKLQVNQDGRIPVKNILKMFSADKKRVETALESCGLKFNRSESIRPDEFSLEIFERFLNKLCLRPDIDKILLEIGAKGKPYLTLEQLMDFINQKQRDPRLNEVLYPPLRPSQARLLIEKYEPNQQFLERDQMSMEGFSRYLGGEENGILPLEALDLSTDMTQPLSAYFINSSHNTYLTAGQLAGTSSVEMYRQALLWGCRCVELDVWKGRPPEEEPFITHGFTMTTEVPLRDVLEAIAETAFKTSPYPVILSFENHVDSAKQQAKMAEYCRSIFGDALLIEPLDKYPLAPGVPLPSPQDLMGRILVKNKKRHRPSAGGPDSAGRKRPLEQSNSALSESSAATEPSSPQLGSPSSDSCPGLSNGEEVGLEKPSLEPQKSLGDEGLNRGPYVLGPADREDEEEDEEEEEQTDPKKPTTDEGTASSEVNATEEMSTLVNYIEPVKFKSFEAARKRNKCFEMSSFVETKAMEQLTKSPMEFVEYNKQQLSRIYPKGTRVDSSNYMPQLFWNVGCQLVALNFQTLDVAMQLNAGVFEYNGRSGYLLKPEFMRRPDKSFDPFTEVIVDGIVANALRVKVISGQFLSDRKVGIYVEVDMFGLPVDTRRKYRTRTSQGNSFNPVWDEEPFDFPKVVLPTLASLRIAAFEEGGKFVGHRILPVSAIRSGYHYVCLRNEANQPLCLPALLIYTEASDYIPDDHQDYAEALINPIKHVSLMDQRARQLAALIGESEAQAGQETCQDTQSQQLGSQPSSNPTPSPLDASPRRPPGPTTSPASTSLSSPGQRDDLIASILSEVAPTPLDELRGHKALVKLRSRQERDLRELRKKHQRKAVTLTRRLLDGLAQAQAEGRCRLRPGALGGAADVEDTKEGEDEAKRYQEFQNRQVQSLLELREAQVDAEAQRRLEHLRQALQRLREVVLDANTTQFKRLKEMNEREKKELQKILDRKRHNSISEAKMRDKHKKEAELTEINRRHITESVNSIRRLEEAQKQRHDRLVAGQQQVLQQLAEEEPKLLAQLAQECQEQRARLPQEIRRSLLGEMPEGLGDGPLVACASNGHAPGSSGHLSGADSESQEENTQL

[2] = target: T2, myc-tagged human PLC-β3 (human) (UniProt Q01970); assay: as above
T2 sequence: T1 sequence

[3] = target: T3, PLC-β3 (proximity ligation assay) (UniProt Q01970); assay: proximity ligation; cells co-transfected with vectors for the two proteins (CHO in the legend, HEK293T in the text), pairs of primary antibodies
T3 sequence: T1 sequence

Tcf-4 = Tcf-4 (UniProt Q9NQB0); assay: co-IP; anti-Dvl2 or anti-Tcf-4 antibody on Dynabeads, lysates (1% NP-40 buffer) of co-transfected HEK293T cells, Western blot for PLC-β3; control IgG

binding [2]: binds
Molecule: GSK3β (from UniProt P49841 1-420) (enzyme)

binding [2]: binds
Molecule: Lef-1 (from UniProt Q9UJU2 1-399)

binding [2]: binds
Molecule: Tcf-4 (from UniProt Q9NQB0 1-619)

binding (Tcf-4): binds weakly
B3: human PLC-β3 (construct of the anti-Dvl2 and anti-Tcf-4 immunoprecipitations) (enzyme, UniProt Q01970 1-1234)
chain: T1 sequence

Second part, the molecule before the results:

Molecule: Fzd4 (from UniProt Q9ULV1 37-537) (receptor)
binding [1]: no binding

Molecule: Fzd5 (from UniProt Q13467 27-585) (receptor)
binding [1]: no binding

Molecule: Fzd8 (from UniProt Q9H461 28-694) (receptor)
binding [1]: no binding

Molecule: Lef-1 (proximity ligation assay) (from UniProt Q9UJU2 1-399)
binding [3]: binds

B1: Wls (protein, UniProt Q5T9L3 1-541)
chain: MAGAIIENMSTKKLCIVGGILLVFQIIAFLVGGLIAPGPTTAVSYMSVKCVDARKNHHKTKWFVPWGPNHCDKIRDIEEAIPREIEANDIVFSVHIPLPHMEMSPWFQFMLFILQLDIAFKLNNQIRENAEVSMDVSLAYRDDAFAEWTEMAHERVPRKLKCTFTSPKTPEHEGRYYECDVLPFMEIGSVAHKFYLLNIRLPVNEKKKINVGIGEIKDIRLVGIHQNGGFTKVWFAMKTFLTPSIFIIMVWYWRRITMMSRPPVLLEKVIFALGISMTFINIPVEWFSIGFDWTWMLLFGDIRQGIFYAMLLSFWIIFCGEHMMDQHERNHIAGYWKQVGPIAVGSFCLFIFDMCERGVQLTNPFYSIWTTDIGTELAMAFIIVAGICLCLYFLFLCFMVFQVFRNISGKQSSLPAMSKVRRLHYEGLIFRFKFLMLITLACAAMTVIFFIVSQVTEGHWKWGGVTVQVNSAFFTGIYGMWNLYVFALMFLYAPSHKNYGEDQSNGDLGVHSGEELQLTTTITHVDGPTEIYKLTRKEAQE
binding [2]: binds

B2: NLK (enzyme, UniProt Q9UBE8 1-527)
chain: MSLCGARANAKMMAAYNGGTSAAAAGHHHHHHHHLPHLPPPHLHHHHHPQHHLHPGSAAAVHPVQQHTSSAAAAAAAAAAAAAMLNPGQQQPYFPSPAPGQAPGPAAAAPAQVQAAAAATVKAHHHQHSHHPQQQLDIEPDRPIGYGAFGVVWSVTDPRDGKRVALKKMPNVFQNLVSCKRVFRELKMLCFFKHDNVLSALDILQPPHIDYFEEIYVVTELMQSDLHKIIVSPQPLSSDHVKVFLYQILRGLKYLHSAGILHRDIKPGNLLVNSNCVLKICDFGLARVEELDESRHMTQEVVTQYYRAPEILMGSRHYSNAIDIWSVGCIFAELLGRRILFQAQSPIQQLDLITDLLGTPSLEAMRTACEGAKAHILRGPHKQPSLPVLYTLSSQATHEAVHLLCRMLVFDPSKRISAKDALAHPYLDEGRLRYHTCMCKCCFSTSTGRVYTSDFEPVTNPKFDDTFEKNLSSVRQVKEIIHQFILEQQKGNRVPLCINPQSAAFKSFISSTVAQPSEMPPSPLVWE
binding [2]: binds
